Test results from the supplement of paper PMC10849652.
Some of the results follow.

Protein sequences, listed by entry. Tags and fused reporters are not part of them. Lines headed by an entry give the natural chain unless they say otherwise; changes in a name come on top.
UniProt A4D2B0: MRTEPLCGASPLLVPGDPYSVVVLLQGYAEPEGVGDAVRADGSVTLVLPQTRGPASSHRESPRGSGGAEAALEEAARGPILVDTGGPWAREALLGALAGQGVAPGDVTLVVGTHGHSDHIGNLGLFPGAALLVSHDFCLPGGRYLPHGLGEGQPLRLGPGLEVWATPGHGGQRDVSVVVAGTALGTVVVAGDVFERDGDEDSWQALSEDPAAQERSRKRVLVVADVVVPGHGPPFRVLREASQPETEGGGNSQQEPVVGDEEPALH
UniProt Q9NWA0: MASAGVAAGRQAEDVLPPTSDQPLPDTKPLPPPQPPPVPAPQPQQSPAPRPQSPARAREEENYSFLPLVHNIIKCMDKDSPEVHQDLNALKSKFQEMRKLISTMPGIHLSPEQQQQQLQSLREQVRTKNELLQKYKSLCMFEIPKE
UniProt Q6ZN04: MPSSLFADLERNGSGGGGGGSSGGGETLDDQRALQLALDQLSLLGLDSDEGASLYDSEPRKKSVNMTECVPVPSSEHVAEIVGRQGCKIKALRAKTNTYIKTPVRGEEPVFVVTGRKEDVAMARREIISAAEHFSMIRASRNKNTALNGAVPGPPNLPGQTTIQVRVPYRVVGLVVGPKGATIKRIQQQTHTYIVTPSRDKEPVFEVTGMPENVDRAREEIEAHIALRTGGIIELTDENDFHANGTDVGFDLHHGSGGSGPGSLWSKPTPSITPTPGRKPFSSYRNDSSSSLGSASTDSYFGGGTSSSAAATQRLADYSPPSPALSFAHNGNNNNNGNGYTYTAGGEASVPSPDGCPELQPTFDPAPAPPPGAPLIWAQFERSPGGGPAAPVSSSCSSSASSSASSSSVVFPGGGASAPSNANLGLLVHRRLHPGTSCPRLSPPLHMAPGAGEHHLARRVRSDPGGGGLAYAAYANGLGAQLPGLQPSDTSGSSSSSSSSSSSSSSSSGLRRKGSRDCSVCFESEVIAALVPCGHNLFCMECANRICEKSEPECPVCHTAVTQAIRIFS
UniProt Q9P086: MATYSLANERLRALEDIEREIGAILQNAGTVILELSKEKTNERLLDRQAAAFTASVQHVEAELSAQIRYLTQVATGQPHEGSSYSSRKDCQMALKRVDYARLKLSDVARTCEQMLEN
UniProt Q02078: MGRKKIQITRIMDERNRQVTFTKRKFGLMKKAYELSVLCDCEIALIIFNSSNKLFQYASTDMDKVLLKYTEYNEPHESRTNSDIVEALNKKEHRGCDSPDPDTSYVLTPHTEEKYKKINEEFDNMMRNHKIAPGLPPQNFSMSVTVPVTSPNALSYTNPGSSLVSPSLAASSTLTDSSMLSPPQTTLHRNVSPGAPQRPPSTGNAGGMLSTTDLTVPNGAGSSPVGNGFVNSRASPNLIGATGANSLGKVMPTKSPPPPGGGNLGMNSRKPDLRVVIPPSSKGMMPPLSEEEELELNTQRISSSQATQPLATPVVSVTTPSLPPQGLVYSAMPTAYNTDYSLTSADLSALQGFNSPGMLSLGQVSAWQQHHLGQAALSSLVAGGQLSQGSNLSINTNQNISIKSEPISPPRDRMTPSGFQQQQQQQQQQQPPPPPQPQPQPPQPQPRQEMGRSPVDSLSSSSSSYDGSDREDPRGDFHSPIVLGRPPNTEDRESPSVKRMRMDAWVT
UniProt Q6NUT3: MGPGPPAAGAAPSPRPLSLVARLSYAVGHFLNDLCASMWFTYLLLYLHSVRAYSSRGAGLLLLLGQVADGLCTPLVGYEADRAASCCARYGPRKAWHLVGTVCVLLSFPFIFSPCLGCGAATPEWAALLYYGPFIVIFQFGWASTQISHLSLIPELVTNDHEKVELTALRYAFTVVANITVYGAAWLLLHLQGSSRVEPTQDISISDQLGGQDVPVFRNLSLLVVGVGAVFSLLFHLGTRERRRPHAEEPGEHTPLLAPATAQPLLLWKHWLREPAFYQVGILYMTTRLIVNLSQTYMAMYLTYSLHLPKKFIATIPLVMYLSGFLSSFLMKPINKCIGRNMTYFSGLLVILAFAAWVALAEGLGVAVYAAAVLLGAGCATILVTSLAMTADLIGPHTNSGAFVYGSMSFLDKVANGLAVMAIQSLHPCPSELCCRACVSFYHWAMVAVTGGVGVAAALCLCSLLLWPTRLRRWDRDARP
UniProt Q96KG7: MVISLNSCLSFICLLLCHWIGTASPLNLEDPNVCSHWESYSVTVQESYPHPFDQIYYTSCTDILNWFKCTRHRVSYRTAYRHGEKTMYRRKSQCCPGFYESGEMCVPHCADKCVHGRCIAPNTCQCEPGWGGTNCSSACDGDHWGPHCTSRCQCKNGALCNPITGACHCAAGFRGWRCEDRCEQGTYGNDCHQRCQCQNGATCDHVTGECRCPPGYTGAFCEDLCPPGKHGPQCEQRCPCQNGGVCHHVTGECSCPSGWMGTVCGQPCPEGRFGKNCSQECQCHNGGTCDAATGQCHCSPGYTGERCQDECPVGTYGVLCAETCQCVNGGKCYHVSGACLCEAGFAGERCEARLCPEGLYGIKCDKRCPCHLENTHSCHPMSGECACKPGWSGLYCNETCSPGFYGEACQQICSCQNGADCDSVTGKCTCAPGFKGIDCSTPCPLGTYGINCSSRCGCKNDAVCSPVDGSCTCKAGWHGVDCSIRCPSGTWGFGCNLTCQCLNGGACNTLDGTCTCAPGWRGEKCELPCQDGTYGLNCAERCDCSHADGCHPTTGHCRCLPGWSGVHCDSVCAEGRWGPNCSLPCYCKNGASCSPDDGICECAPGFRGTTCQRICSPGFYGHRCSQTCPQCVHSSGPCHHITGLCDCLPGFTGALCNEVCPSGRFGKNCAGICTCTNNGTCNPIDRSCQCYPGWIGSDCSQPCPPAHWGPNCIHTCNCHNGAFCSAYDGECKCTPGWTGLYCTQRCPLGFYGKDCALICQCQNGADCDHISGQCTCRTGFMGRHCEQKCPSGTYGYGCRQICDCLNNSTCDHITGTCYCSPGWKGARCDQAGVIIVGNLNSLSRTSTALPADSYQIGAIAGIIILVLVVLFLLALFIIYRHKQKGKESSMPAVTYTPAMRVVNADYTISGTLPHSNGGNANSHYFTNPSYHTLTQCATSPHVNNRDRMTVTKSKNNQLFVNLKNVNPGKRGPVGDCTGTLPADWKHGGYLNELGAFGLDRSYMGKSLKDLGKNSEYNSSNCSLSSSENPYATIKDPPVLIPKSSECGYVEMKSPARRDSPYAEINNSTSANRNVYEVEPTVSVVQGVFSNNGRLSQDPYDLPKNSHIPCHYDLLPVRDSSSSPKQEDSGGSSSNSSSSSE
UniProt Q7Z7M0: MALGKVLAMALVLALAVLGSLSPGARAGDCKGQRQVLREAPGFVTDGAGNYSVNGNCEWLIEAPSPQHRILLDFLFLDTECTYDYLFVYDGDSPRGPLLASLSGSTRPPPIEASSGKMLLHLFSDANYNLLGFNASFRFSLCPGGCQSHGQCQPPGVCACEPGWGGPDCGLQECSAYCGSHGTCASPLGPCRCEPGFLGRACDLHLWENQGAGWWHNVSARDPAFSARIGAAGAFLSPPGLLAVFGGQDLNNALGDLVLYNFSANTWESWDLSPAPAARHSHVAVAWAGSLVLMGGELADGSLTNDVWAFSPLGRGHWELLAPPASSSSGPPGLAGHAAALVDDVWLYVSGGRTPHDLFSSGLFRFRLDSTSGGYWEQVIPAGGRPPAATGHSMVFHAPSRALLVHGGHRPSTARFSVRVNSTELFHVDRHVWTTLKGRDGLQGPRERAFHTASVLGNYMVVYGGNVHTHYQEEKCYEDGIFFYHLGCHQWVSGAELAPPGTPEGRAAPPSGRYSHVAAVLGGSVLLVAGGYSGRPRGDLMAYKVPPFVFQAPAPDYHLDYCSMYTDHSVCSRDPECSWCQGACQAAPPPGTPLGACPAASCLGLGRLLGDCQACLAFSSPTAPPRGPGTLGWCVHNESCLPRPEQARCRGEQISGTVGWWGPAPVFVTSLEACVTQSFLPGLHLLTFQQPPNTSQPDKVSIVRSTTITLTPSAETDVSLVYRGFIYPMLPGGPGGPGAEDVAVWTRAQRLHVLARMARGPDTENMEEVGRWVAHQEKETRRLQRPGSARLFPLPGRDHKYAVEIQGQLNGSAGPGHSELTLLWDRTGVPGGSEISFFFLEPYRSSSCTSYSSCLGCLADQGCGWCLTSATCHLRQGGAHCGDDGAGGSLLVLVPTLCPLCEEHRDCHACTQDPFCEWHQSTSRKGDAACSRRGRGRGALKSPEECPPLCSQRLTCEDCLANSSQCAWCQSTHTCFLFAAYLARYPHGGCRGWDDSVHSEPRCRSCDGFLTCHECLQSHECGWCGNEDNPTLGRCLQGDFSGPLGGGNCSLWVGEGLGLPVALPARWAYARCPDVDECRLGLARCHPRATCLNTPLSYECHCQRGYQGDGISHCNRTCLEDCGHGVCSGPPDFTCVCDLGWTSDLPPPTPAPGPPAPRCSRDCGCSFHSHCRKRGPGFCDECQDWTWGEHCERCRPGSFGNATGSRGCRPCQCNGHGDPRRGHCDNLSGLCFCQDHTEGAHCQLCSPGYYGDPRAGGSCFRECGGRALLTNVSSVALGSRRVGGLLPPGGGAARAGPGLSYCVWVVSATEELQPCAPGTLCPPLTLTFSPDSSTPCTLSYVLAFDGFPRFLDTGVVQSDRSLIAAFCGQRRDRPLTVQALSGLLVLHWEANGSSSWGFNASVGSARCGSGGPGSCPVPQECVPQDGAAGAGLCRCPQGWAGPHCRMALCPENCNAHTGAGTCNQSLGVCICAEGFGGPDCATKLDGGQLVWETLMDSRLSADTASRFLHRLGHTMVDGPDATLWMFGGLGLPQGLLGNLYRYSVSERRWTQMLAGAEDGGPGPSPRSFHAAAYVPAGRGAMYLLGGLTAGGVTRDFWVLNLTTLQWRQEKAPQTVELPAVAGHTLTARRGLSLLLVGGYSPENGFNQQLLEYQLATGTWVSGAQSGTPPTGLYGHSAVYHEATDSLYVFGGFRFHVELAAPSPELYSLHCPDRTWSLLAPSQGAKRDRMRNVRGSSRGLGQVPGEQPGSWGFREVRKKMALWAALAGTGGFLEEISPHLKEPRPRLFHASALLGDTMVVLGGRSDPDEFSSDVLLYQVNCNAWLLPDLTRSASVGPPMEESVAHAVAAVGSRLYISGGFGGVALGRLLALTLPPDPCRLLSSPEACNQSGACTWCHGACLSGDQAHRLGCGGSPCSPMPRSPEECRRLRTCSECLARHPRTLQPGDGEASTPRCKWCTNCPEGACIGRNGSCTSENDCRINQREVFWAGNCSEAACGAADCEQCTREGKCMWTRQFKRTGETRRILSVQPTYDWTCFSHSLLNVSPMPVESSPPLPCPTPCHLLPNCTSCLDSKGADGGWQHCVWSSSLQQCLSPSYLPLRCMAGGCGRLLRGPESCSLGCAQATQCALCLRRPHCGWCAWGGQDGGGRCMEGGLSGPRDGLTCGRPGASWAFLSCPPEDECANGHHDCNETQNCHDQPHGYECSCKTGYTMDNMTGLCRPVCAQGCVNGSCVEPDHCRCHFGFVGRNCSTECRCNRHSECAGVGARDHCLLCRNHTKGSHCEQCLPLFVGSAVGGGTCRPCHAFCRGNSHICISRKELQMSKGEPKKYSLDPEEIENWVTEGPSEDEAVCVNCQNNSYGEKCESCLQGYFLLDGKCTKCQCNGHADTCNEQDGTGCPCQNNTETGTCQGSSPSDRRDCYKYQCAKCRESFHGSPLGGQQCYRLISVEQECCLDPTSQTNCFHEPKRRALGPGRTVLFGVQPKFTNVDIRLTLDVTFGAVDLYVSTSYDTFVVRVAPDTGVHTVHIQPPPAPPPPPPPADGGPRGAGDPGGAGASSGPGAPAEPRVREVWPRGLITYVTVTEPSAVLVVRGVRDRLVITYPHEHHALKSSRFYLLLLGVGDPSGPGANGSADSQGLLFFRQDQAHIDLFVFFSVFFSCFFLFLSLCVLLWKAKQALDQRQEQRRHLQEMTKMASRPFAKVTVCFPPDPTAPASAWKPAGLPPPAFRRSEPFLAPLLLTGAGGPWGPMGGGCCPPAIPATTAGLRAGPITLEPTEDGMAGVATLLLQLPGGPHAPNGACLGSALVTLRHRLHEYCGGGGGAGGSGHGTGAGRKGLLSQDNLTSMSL
UniProt O43462: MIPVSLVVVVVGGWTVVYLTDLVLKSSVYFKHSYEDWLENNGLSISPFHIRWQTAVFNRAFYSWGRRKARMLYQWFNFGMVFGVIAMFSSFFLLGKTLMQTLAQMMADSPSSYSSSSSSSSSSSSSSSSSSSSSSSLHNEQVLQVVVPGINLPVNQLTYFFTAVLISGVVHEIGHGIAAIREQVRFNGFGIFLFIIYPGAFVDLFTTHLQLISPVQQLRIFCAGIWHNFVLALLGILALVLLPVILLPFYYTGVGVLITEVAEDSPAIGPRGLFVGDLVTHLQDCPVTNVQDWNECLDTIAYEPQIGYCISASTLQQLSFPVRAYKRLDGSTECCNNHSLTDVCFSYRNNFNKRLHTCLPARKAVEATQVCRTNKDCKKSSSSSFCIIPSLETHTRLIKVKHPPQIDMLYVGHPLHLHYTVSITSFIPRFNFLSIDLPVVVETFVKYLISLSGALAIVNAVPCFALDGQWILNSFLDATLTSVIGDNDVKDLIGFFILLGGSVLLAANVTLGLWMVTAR

Key:
Test in all cases: log2 fold change, soluble protein after heating vs DMSO (PISA); higher = thermal stabilisation; K562 cells, 10 uM, 30 min; active = over 0.2 and 3.5 SD of the protein, either way, in both replicates (recomputed)
[1] = compound: CC1=C(C=C(C=C1)NC(=O)C2=CC(=CC=C2)C(C)(C)C#N)NC3=CC4=C(C=C3)N=CN(C4=O)C
In short: (§1)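 Thermal stability values are relative to control samples and come from duplicates. They are expressed as log2 fold changes. For measurement, K562 cells (2×10^6 cells/mL) received 10 μM compound for 30 min, and aliquots were heated for 3 min over 48°C-58°C, pooled, and extracted at 4°C in PBS with 0.5% NP-40. Soluble protein, the supernatant after 21,000xg for 90 min, was quantified by TMTpro 16plex LC-MS/MS with equalised channel sums.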

Nexturastat A = compound: CCCCN(Cc1ccc(C(=O)NO)cc1)C(=O)Nc1ccccc1 [Nexturastat A]
In short: as §1

vemurafenib = compound: CCCS(=O)(=O)Nc1ccc(F)c(C(=O)c2c[nH]c3ncc(-c4ccc(Cl)cc4)cc23)c1F [vemurafenib]
In short: as §1

[2] = compound: CCCc1cc(C)[nH]c(=O)c1CNC(=O)c1cc(-c2ccnc(N3CCN(C)CC3)c2)cc2c1cnn2C(C)C
In short: as §1

givinostat = compound: CCN(CC)Cc1ccc2cc(COC(=O)Nc3ccc(C(=O)NO)cc3)ccc2c1 [givinostat]
In short: as §1

barasertib = compound: CCN(CCCOc1ccc2c(Nc3cc(CC(=O)Nc4cccc(F)c4)[nH]n3)ncnc2c1)CCOP(=O)(O)O [barasertib]
In short: as §1

[3] = compound: CC[C@H](C)N1C=C(C2=C(C=C(C=C21)C3=CN=C(C=C3)N4CCNCC4)C(=O)NCC5=C(C=C(NC5=O)C)C)C
In short: as §1

epoxomicin = compound: CC[C@H](C)[C@@H](C(=O)N[C@@H]([C@@H](C)O)C(=O)N[C@@H](CC(C)C)C(=O)[C@]1(CO1)C)NC(=O)[C@H]([C@@H](C)CC)N(C)C(=O)C [epoxomicin]
In short: as §1

[4] = compound: CCn1c(C(=O)N(C2CC2)C2CC2)cc2c3c(ncn3C)c(Nc3cc(C)n(C)n3)nc21
In short: as §1

[5] = compound: CCn1cc(-c2ccnc3[nH]c(-c4cccc(CN(C)C)c4)cc23)c(-c2ccc(NC(=O)N(C)C)cc2)n1
In short: as §1

[6] = compound: CN(C)CC(=O)Nc1ccc2[nH]c(=O)c3ccccc3c2c1
In short: as §1

rosiglitazone = compound: CN(CCOC1=CC=C(C=C1)C[C@H]2C(=O)NC(=O)S2)C3=CC=CC=N3 (racemic) [rosiglitazone]
In short: as §1

[7] = compound: CN1C2=C(C3=C1C(=O)N(N=C3)CC4=CC(=CC=C4)N)SC(=C2)S(=O)C
In short: as §1

[8] = compound: CN1CCC(CNc2ccc3ncc(-c4cccc(OC(F)(F)F)c4)n3n2)CC1
In short: as §1

[9] = compound: CC1=C(C=C(C=C1)NC(=O)C2=CC(=CC=C2)N(C)C)NC(=O)C3=CC=C(C=C3)O
In short: as §1

[10] = compound: CC1=CC=C(C=C1)SC2=C3C=C(SC3=CN=C2)C(=O)N
In short: as §1

[11] = compound: CCCS(=O)(=O)Nc1ccc(F)c(C(=O)c2c[nH]c3ncc(Cl)cc23)c1F
In short: as §1

[12] = compound: CC[C@@H]1C(=O)N(C)c2cnc(Nc3ccc(C(=O)NC4CCN(C)CC4)cc3OC)nc2N1C1CCCC1
In short: as §1

volasertib = compound: CC[C@@H]1C(=O)N(C)c2cnc(Nc3ccc(C(=O)N[C@H]4CC[C@H](N5CCN(CC6CC6)CC5)CC4)cc3OC)nc2N1C(C)C [volasertib]
In short: as §1

[13] = compound: CC1=NC(=CC=C1)C2=C(N=C(N2)C(C)(C)C)C3=CC4=NC=CN=C4C=C3
In short: as §1

Measured: log2 fold change

MFSD6 (UniProt Q6ZSS7)
inactive: [1] -0.036 | Nexturastat A 0.058 | vemurafenib 0.045 | [2] -0.17 | givinostat -0.026 | barasertib 0.143 | [3] -0.041 | epoxomicin -0.077 | [4] 0.002 | [5] 0.004 | [6] 0.049 | rosiglitazone -0.005 | [7] -0.014 | [8] 0.043

MED27 (UniProt Q6P2C8)
inactive: [1] -0.003 | Nexturastat A 0.026 | [2] 0.046 | givinostat 0.046 | barasertib 0.126 | [3] -0.044 | epoxomicin -0.008 | [4] 0.028 | [5] 0.077 | rosiglitazone 0.024 | [7] 0.086 | [8] 0.319

MCOLN3 (UniProt Q8TDD5)
inactive: [9] 0.013 | [10] 0.15 | [11] 0.014 | [2] -0.481 | givinostat 0.221 | barasertib -0.171 | [12] 0.094 | volasertib -0.136 | [3] -0.071 | [5] 0.027 | [8] -0.084

MBLAC1 (UniProt A4D2B0)
inactive: [9] 0.079 | [10] -0.093 | [13] -0.098 | vemurafenib 0.029 | [11] -0.008 | [2] 0.059 | givinostat -0.04 | barasertib -0.016 | [12] 0.112 | volasertib 0.148 | [5] -0.01 | [6] 0.105 | [7] -0.021 | [8] 0.063

MFSD9 (UniProt Q8NBP5)
inactive: [10] 0.004 | [11] -0.127 | [2] 0.003 | givinostat -0.059 | volasertib 0.046 | [3] -0.019 | [4] 0.17 | [7] 0.02

MED9 (UniProt Q9NWA0)
inactive: [9] -0.078 | [13] 0.017 | [2] -0.6 | [12] 0.088 | [3] -0.112 | [5] -0.127 | [7] -0.069 | [8] 0.144

MEX3B (UniProt Q6ZN04)
inactive: [9] -0.075 | [10] 0.204 | [11] 0.187 | givinostat 0.098 | barasertib -0.009 | volasertib -0.22 | [3] 0.209 | [4] 0.162 | rosiglitazone -0.121

MED11 (UniProt Q9P086)
inactive: [13] 0.126 | [2] 0.133 | givinostat -0.131 | [4] 0.017

Looked up one by one from the entries so far, two records:
MED9 (UniProt Q9NWA0)
inactive: [9] -0.078 | [13] 0.017 | [2] -0.6 | [12] 0.088 | [3] -0.112 | [5] -0.127 | [7] -0.069 | [8] 0.144

MFSD9 (UniProt Q8NBP5)
inactive: [10] 0.004 | [11] -0.127 | [2] 0.003 | givinostat -0.059 | volasertib 0.046 | [3] -0.019 | [4] 0.17 | [7] 0.02

(cont.)

MBNL2 (UniProt Q5VZF2)
inactive: [9] -0.005 | [10] -0.002 | [13] -0.044 | [11] -0.042 | givinostat 0.044 | volasertib -0.083 | [4] 0.061 | [5] 0.018 | [8] -0.074

MED13L (UniProt Q71F56)
inactive: [10] -0.121 | Nexturastat A 0.194 | vemurafenib -0.053 | [11] 0.086 | givinostat 0.033 | volasertib -0.211 | epoxomicin 0.021 | [4] -0.148 | [6] 0.115

MEX3C (UniProt Q5U5Q3)
inactive: [9] 0.009 | [2] -0.062

MEF2A isoform 2 (UniProt Q02078)
inactive: [10] 0.006 | [13] 0.036 | vemurafenib 0.008 | [11] 0.009 | [2] 0.103 | volasertib 0 | [3] 0.103 | [5] 0.26 | [6] -0.101 | [8] 0.098

METTL15 (UniProt A6NJ78)
inactive: Nexturastat A -0.014 | barasertib -0.07 | epoxomicin 0.518 | rosiglitazone 0.048 | [7] 0.1

MASP1 isoform 2 (UniProt P48740)
inactive: [1] -0.08 | [5] -0.067 | [8] 0.32

MFSD12 isoform 3 (UniProt Q6NUT3)
inactive: [1] 0.115 | givinostat -0.022 | [12] -0.005 | [5] -0.006 | [7] 0.075 | [8] -0.305

MEGF10 (UniProt Q96KG7)
inactive: [10] -0.112 | [11] -0.032 | volasertib -0.192

MEGF8 (UniProt Q7Z7M0)
inactive: [13] 0.009 | [12] 0.197 | [3] -0.072

MBIP (UniProt Q9NS73)
inactive: [9] -0.04 | [10] -0.027 | [13] -0.068 | vemurafenib -0.034 | [11] 0.026 | [2] 0.114 | givinostat -0.008 | barasertib 0.184 | volasertib -0.166 | [4] -0.142 | [6] -0.053 | rosiglitazone -0.161

MBTPS2 (UniProt O43462)
inactive: [9] -0.002 | [10] 0.023 | [13] -0.046 | Nexturastat A -0.075 | vemurafenib -0.078 | [11] 0.1 | givinostat 0.03 | volasertib 0 | [3] 0.023 | epoxomicin 0.003 | [4] 0.05 | [5] -0.177 | [6] 0.064 | [7] -0.04 | [8] -0.035
